Values joined by “and” are separate entries in the source; they are usually repeats but may differ in a detail not shown here. Equal values may be shown once. Read-outs that look alike come from different tables or passages of the source. Further values from the same series stand in other lists.
System: BL21(DE3) E. coli transformed with pUCP18 vector expressing untagged AAC(3)-Ia
Type: cell-based
Description: Ten milliliters of LB containing […] ampicillin were inoculated from glycerol stocks of transformed BL21(DE3) E. coli containing genes expressing the proteins of interest in pUCP18 vectors. These cultures were incubated at 37 °C with 200 rpm agitation for 16 h. Turbidity was measured through OD600 with a NanoDrop OneC Spectrometer (Thermo Scientific). From the initial cultures, secondary 10 mL cultures were prepared with OD600 values of 0.1. These cultures were grown until OD600 values of 0.4–0.6 were reached and diluted to bring all cultures to the same OD600. Cultures were induced with 1 mM Isopropyl β-D-1-thiogalactopyranoside and incubated for 4 h. Two microliters of culture was added to 198 μL of LB with an appropriate aminoglycoside titration concentration. Each titration point was repeated n = 4 times. The formulated 96-well culture plate (Sarstedt) had OD600 measured on a 20-min interval over 17 h using a BioTek Cytation 5 Cell Imaging Multimode Reader, incubating at 37 °C with 282 cpm orbital agitation. Experiments were repeated with fresh cultures on separate days to ensure consistent trends. Data was analyzed in Microsoft Excel and GraphPad5. The remainder of the culture immediately had its RNA isolated for qPCR experiments.

SMILES: CN[C@@H]1[C@@H](O)[C@@H](O[C@@H]2[C@@H](O)[C@H](O[C@H]3OC(CN)=CC[C@H]3N)[C@@H](N)C[C@H]2N)OC[C@]1(C)O [Sisomicin, sisomicin]
- OD600 growth curve (6 ug/mL Sisomicin, time point 06:39:10): 0.107 and 0.113 and 0.119
- OD600 growth curve (6 ug/mL Sisomicin, time point 06:59:10): 0.107 and 0.113 and 0.121 and 0.119
- OD600 growth curve (6 ug/mL Sisomicin, time point 07:19:10): 0.107 and 0.113 and 0.121 and 0.118
- OD600 growth curve (6 ug/mL Sisomicin, time point 07:39:10): 0.107 and 0.113 and 0.121 and 0.117
- OD600 growth curve (6 ug/mL Sisomicin, time point 07:59:10): 0.108 and 0.113 and 0.121 and 0.116
- OD600 growth curve (6 ug/mL Sisomicin, time point 08:19:10): 0.108 and 0.113 and 0.121 and 0.114
- OD600 growth curve (6 ug/mL Sisomicin, time point 08:39:10): 0.108 and 0.113 and 0.121
- OD600 growth curve (6 ug/mL Sisomicin, time point 08:59:10): 0.108 and 0.112 and 0.121 and 0.111
- OD600 growth curve (6 ug/mL Sisomicin, time point 09:19:10): 0.108 and 0.111 and 0.12 and 0.11
- OD600 growth curve (6 ug/mL Sisomicin, time point 09:39:10): 0.108 and 0.112 and 0.121 and 0.109
- OD600 growth curve (6 ug/mL Sisomicin, time point 09:59:10): 0.108 and 0.111 and 0.121
- OD600 growth curve (6 ug/mL Sisomicin, time point 10:19:10): 0.108 and 0.11 and 0.12
- OD600 growth curve (6 ug/mL Sisomicin, time point 10:39:10): 0.107 and 0.109 and 0.119 and 0.108
- OD600 growth curve (6 ug/mL Sisomicin, time point 10:59:10): 0.107 and 0.108 and 0.119
- OD600 growth curve (6 ug/mL Sisomicin, time point 11:19:10): 0.106 and 0.107 and 0.119 and 0.108
- OD600 growth curve (6 ug/mL Sisomicin, time point 11:39:10): 0.106 and 0.118 and 0.107
- OD600 growth curve (6 ug/mL Sisomicin, time point 11:59:10): 0.106 and 0.105 and 0.118
- OD600 growth curve (6 ug/mL Sisomicin, time point 12:19:10): 0.105 and 0.104 and 0.116 and 0.106
- OD600 growth curve (6 ug/mL Sisomicin, time point 12:39:10): 0.104 and 0.115 and 0.106
- OD600 growth curve (6 ug/mL Sisomicin, time point 12:59:10): 0.104 and 0.103 and 0.114 and 0.106
- OD600 growth curve (12 ug/mL Sisomicin, time point 00:19:10): 0.101 and 0.102 and 0.103
- OD600 growth curve (12 ug/mL Sisomicin, time point 00:39:10): 0.102 and 0.103 and 0.104
- OD600 growth curve (12 ug/mL Sisomicin, time point 00:59:10): 0.102 and 0.104 and 0.105
- OD600 growth curve (12 ug/mL Sisomicin, time point 01:19:10): 0.102 and 0.105
- OD600 growth curve (12 ug/mL Sisomicin, time point 01:39:10): 0.102 and 0.104 and 0.105 and 0.106
- OD600 growth curve (12 ug/mL Sisomicin, time point 01:59:10): 0.102 and 0.104 and 0.105 and 0.106
- OD600 growth curve (12 ug/mL Sisomicin, time point 02:19:10): 0.102 and 0.104 and 0.105 and 0.106
- OD600 growth curve (12 ug/mL Sisomicin, time point 02:39:10): 0.101 and 0.103 and 0.104 and 0.105
- OD600 growth curve (12 ug/mL Sisomicin, time point 02:59:10): 0.101 and 0.103 and 0.104 and 0.105
- OD600 growth curve (12 ug/mL Sisomicin, time point 03:19:10): 0.101 and 0.103 and 0.105
- OD600 growth curve (12 ug/mL Sisomicin, time point 03:39:10): 0.1 and 0.102 and 0.105
- OD600 growth curve (12 ug/mL Sisomicin, time point 03:59:10): 0.1 and 0.102 and 0.104
- OD600 growth curve (12 ug/mL Sisomicin, time point 04:19:10): 0.099 and 0.101 and 0.102 and 0.104
- OD600 growth curve (12 ug/mL Sisomicin, time point 04:39:10): 0.099 and 0.101 and 0.103
- OD600 growth curve (12 ug/mL Sisomicin, time point 04:59:10): 0.099 and 0.1 and 0.101 and 0.103
- OD600 growth curve (12 ug/mL Sisomicin, time point 05:19:10): 0.099 and 0.1 and 0.102
- OD600 growth curve (12 ug/mL Sisomicin, time point 05:39:10): 0.098 and 0.1 and 0.102
- OD600 growth curve (12 ug/mL Sisomicin, time point 05:59:10): 0.098 and 0.099 and 0.1 and 0.102
- OD600 growth curve (12 ug/mL Sisomicin, time point 06:19:10): 0.098 and 0.099 and 0.101
- OD600 growth curve (12 ug/mL Sisomicin, time point 06:39:10): 0.098 and 0.099 and 0.101
- OD600 growth curve (12 ug/mL Sisomicin, time point 06:59:10): 0.097 and 0.099 and 0.101
- OD600 growth curve (12 ug/mL Sisomicin, time point 07:19:10): 0.097 and 0.099 and 0.101
- OD600 growth curve (12 ug/mL Sisomicin, time point 07:39:10): 0.097 and 0.098 and 0.101
- OD600 growth curve (12 ug/mL Sisomicin, time point 07:59:10): 0.097 and 0.098 and 0.1
- OD600 growth curve (12 ug/mL Sisomicin, time point 08:19:10): 0.097 and 0.098 and 0.1
- OD600 growth curve (12 ug/mL Sisomicin, time point 08:39:10): 0.097 and 0.098 and 0.1
- OD600 growth curve (12 ug/mL Sisomicin, time point 08:59:10): 0.097 and 0.098 and 0.1
- OD600 growth curve (12 ug/mL Sisomicin, time point 09:19:10): 0.096 and 0.098 and 0.1
- OD600 growth curve (12 ug/mL Sisomicin, time point 09:39:10): 0.096 and 0.098 and 0.1
- OD600 growth curve (12 ug/mL Sisomicin, time point 09:59:10): 0.096 and 0.098 and 0.1
- OD600 growth curve (12 ug/mL Sisomicin, time point 10:19:10): 0.096 and 0.097 and 0.1
- OD600 growth curve (12 ug/mL Sisomicin, time point 10:39:10): 0.096 and 0.097 and 0.1
- OD600 growth curve (12 ug/mL Sisomicin, time point 10:59:10): 0.096 and 0.097 and 0.1
- OD600 growth curve (12 ug/mL Sisomicin, time point 11:19:10): 0.096 and 0.097 and 0.1
- OD600 growth curve (12 ug/mL Sisomicin, time point 11:39:10): 0.096 and 0.097 and 0.1
- OD600 growth curve (12 ug/mL Sisomicin, time point 11:59:10): 0.096 and 0.097 and 0.099
- OD600 growth curve (12 ug/mL Sisomicin, time point 12:19:10): 0.096 and 0.097 and 0.099
- OD600 growth curve (12 ug/mL Sisomicin, time point 12:39:10): 0.096 and 0.097 and 0.099
- OD600 growth curve (12 ug/mL Sisomicin, time point 12:59:10): 0.095 and 0.097 and 0.099

Reference: article PMC12378234, “Enzyme-mediated aminoglycoside resistance without target mimicry” (Communications Chemistry, 2025)
